The results in this text go back to the supplement of paper PMC12067093, “Discovery and optimisation of a covalent ligand for TRIM25 and its application to targeted protein ubiquitination” (Chemical Science, 2025).

Chains of the proteins cited; added tags and fusions are not shown. Lines headed by an entry give the natural chain unless they say otherwise; changes in a name come on top.
UniProt Q9HD20: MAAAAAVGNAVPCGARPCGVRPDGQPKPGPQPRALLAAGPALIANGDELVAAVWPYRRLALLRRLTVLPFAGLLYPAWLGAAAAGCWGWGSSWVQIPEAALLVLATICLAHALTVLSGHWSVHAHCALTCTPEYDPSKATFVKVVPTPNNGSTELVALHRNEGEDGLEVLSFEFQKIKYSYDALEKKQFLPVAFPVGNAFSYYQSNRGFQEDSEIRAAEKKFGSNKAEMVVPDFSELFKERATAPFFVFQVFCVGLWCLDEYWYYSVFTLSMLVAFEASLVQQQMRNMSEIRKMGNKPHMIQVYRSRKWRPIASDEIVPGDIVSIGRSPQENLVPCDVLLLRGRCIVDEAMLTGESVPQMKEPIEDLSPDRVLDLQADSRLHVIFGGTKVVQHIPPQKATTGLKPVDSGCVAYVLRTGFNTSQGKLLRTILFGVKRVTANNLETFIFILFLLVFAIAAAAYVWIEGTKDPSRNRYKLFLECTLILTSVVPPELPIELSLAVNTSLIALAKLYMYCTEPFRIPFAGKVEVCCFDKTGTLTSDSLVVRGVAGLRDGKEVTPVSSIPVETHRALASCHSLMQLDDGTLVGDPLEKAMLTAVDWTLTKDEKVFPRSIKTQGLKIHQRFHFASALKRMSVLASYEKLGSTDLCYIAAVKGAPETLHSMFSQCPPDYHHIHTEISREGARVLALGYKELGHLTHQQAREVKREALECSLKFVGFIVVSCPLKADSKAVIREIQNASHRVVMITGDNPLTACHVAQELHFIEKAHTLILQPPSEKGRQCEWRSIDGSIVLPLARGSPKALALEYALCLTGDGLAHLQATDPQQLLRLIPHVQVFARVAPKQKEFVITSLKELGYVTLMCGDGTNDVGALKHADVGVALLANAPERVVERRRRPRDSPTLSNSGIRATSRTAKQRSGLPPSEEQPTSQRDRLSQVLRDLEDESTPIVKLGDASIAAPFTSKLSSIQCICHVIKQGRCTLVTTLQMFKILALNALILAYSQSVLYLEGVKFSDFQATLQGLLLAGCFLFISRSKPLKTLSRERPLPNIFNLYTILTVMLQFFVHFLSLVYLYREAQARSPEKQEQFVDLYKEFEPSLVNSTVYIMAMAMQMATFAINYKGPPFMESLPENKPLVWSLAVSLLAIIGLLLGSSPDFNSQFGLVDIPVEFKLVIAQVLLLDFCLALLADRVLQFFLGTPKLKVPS
UniProt Q8TF62: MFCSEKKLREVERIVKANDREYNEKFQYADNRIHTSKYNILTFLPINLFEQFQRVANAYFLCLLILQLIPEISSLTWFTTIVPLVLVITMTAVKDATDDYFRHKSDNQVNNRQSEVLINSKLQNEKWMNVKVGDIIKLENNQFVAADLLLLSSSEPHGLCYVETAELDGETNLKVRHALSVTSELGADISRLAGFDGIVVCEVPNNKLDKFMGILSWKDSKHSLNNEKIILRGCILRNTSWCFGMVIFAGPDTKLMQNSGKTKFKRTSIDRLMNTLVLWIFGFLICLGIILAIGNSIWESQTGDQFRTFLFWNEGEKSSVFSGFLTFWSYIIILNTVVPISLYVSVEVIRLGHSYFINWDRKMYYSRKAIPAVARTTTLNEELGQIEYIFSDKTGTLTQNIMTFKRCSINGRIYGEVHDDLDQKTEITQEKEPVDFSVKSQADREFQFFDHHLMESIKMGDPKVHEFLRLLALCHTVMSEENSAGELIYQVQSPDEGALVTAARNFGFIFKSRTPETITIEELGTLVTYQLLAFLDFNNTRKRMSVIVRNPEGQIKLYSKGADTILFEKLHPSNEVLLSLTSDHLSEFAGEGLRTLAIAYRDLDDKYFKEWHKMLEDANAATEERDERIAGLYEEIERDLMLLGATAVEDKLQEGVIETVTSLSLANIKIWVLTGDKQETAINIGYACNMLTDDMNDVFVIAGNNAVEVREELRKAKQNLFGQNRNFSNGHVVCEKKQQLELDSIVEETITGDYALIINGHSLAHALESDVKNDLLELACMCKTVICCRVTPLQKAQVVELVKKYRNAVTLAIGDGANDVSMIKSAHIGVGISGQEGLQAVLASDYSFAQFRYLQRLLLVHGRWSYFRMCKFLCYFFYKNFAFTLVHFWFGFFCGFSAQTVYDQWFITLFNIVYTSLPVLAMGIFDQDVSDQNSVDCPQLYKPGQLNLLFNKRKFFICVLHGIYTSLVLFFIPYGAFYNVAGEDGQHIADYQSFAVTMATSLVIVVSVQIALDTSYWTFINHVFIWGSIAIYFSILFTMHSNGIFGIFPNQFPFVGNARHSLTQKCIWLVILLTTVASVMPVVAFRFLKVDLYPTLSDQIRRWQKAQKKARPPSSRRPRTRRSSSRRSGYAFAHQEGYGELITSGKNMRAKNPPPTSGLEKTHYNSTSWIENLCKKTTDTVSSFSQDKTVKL
UniProt P54709, whole entry, looked up: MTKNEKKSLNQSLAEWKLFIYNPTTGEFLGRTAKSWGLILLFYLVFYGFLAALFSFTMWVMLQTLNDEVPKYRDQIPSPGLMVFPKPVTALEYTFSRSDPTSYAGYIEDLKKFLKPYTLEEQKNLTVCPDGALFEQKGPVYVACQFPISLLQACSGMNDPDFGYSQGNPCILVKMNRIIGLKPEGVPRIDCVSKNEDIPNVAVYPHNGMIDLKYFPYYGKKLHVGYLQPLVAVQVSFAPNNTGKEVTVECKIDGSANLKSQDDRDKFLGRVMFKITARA
UniProt Q9UBL3, whole entry, looked up: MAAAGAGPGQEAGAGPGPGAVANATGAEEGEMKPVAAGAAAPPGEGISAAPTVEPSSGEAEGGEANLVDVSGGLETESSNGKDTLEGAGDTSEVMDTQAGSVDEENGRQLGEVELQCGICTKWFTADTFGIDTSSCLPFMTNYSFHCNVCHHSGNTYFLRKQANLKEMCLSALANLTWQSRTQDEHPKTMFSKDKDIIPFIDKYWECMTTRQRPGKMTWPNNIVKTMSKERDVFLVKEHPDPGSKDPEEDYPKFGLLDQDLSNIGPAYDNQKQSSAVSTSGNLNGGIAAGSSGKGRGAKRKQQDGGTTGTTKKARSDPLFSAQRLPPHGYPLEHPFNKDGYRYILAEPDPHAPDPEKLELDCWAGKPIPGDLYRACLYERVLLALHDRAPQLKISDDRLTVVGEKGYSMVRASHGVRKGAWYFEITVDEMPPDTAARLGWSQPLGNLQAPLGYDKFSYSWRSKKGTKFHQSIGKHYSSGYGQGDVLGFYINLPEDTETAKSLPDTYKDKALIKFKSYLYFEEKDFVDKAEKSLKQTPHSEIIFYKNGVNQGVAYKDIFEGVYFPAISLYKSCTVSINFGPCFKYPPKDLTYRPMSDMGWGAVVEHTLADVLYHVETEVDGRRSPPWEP
UniProt P15848: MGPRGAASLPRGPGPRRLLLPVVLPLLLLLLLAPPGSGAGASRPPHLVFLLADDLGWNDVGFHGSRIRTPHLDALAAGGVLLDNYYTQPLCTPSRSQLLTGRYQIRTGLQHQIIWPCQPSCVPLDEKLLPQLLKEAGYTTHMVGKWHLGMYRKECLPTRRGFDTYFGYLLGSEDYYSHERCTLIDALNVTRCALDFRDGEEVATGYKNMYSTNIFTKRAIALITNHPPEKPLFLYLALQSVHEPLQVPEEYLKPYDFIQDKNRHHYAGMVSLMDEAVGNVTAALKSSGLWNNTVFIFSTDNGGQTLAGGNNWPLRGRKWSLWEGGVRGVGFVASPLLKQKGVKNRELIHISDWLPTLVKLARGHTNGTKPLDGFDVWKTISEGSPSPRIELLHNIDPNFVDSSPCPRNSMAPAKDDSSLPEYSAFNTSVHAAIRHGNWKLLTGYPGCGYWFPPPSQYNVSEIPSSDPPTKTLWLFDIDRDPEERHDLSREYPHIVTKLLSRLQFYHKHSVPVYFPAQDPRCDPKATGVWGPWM
UniProt P48047: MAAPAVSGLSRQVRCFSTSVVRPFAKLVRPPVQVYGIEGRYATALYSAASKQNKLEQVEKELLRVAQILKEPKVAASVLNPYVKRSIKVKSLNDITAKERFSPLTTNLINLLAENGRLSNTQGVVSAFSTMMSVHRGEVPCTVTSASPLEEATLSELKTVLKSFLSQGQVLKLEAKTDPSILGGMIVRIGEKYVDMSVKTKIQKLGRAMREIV
UniProt P21283, whole entry, looked up: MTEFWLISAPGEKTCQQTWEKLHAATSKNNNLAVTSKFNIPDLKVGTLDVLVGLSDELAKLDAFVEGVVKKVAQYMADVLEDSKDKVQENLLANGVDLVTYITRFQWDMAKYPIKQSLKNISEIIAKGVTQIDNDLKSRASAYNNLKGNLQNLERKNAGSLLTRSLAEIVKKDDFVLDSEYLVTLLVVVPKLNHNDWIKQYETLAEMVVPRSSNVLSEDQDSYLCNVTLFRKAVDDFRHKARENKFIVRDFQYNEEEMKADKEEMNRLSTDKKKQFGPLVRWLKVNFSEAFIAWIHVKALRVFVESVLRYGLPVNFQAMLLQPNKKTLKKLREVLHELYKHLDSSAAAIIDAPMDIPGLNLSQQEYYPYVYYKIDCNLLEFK
UniProt P31939: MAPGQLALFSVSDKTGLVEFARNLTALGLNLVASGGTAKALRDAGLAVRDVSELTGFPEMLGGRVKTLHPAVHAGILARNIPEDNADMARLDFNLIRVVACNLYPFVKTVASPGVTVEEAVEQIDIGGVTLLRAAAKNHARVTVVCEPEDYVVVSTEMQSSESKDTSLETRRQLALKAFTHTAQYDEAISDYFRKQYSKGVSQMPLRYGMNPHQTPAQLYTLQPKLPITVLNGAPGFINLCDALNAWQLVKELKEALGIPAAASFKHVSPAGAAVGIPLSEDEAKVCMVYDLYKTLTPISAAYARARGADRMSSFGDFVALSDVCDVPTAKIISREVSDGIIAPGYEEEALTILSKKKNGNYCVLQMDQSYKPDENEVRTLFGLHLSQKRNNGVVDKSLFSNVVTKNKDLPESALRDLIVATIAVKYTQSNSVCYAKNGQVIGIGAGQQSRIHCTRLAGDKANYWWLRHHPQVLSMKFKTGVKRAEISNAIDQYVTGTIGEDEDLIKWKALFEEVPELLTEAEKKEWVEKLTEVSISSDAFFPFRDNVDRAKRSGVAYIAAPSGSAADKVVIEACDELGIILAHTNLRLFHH
UniProt O75348, whole entry, looked up: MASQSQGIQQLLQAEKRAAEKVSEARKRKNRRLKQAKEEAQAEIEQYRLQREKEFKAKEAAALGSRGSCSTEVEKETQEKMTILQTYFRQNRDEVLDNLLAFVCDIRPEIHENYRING
UniProt Q9ULI0: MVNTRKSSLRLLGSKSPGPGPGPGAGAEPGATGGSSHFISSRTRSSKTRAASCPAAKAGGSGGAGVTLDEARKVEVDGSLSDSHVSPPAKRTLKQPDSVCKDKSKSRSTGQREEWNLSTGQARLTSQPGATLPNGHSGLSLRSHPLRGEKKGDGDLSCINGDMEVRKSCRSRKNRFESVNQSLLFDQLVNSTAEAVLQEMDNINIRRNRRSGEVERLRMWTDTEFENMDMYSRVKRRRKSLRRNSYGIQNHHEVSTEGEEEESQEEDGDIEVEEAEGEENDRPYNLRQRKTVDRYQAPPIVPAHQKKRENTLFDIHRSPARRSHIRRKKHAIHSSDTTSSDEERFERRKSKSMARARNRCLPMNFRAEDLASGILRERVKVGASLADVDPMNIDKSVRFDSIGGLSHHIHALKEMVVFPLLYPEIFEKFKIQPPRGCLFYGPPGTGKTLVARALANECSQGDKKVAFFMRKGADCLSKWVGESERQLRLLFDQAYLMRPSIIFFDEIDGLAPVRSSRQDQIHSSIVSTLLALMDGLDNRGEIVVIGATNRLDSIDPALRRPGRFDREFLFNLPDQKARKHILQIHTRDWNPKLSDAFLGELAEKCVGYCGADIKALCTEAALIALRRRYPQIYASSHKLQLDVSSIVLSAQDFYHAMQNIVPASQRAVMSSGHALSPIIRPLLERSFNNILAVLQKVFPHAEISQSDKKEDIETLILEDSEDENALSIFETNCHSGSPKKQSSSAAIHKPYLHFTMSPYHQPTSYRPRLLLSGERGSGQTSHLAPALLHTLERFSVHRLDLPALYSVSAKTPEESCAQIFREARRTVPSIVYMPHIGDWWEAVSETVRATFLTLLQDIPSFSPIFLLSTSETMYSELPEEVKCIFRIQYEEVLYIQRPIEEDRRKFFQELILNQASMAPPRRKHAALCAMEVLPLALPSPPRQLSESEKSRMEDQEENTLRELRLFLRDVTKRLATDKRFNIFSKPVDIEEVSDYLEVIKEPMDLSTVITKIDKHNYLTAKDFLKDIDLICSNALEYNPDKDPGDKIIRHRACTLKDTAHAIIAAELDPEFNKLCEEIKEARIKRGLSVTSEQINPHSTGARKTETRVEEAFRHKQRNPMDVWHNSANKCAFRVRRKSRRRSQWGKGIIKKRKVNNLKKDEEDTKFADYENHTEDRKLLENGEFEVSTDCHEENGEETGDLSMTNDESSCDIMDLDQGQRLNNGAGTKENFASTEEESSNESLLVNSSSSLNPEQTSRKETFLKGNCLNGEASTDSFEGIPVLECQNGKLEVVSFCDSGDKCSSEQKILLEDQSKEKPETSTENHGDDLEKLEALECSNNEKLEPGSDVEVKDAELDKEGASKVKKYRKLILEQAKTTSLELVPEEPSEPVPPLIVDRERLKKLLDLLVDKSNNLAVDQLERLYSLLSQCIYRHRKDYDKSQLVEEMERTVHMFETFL

The list shows a part of the results.
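Further: competitive chemoproteomic profiling in live THP-1 cells with an iodoacetamide desthiobiotin (IA-DTB) probe, comparing probe-labelled peptide intensities in compound-treated cells against DMSO-treated controls.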

Compound in one test: CC1Cc2ccccc2N1C(=O)C1CCCN(C1)C(=O)CCl (mixture of isomers) [TRIM25 ligand 11 (diastereomer mixture)]
Description: probe-labelled cysteine peptide fold change vs DMSO (competition) (log2 fold change); higher = less target engagement (more negative = stronger competition). Conditions: 10 µM; THP-1; incubation time: 4 h.
Regarding “ASCC3_Q8N3C0_1343_AYEALYNFSHFNPVQTQIFHTLYHTDCNVLLGAPTGSGK (UniProt Q8N3C0)”, the “probe-labelled cysteine peptide fold change” value is -0.0869.
“ATF7IP_Q6VMQ6_955_AADSTSQCGK (UniProt Q6VMQ6)”: the “probe-labelled cysteine peptide fold change” value is -0.0275.
Take “ATM_Q13315_2753_LTICTYK (UniProt Q13315)”: the “probe-labelled cysteine peptide fold change” value came out at 0.00389.
With “ARSA_P15289_493_GEDPALQICCHPGCTPR (UniProt P15289)”, the “probe-labelled cysteine peptide fold change” value worked out at 0.139.
As to “ARPC2_O15144_120_RNCFASVFEK (UniProt O15144)”, the “probe-labelled cysteine peptide fold change” value was -0.0324.
As to “ATP13A1_Q9HD20_969_LSSIQCICHVIK (UniProt Q9HD20)”, the “probe-labelled cysteine peptide fold change” value was -0.0413.
On to “ATP6V1A_P38606_240_VLDALFPCVQGGTTAIPGAFGCGK (UniProt P38606)”, for which the “probe-labelled cysteine peptide fold change” value is -0.151.
Consider “ATP1A1_P05023_518_CSSILLHGK (UniProt P05023)”, for which the “probe-labelled cysteine peptide fold change” value is 0.069.
On to “ATP8B4_Q8TF62_734_NFSNGHVVCEK (UniProt Q8TF62)”, for which the “probe-labelled cysteine peptide fold change” value worked out at 0.0482.
As for “ATM_Q13315_2753_KLTICTYK (UniProt Q13315)”, the “probe-labelled cysteine peptide fold change” value was -0.16.
In the case of “ASAP1_Q9ULH1_373_LNLLTCQVKPNAEDK (UniProt Q9ULH1)”, the “probe-labelled cysteine peptide fold change” value stood at 0.131.
“ATM_Q13315_1495_SFSLCCDLLSQVCQTAVTYCK (UniProt Q13315)”: the “probe-labelled cysteine peptide fold change” value was found to be 0.0504.
As for “ATP1B3_P54709_191_IDCVSK (UniProt P54709)”, the “probe-labelled cysteine peptide fold change” value is -0.07.
In the case of “ASPSCR1_Q9BZE9_40_VTPSTVLLQVLEDTCR (UniProt Q9BZE9)”, the “probe-labelled cysteine peptide fold change” value stood at 0.121.
For “ATP6V1B2_P21281_112_KTSCEFTGDILR (UniProt P21281)”, the “probe-labelled cysteine peptide fold change” value came out at 0.00776.
On the same count and under the same terms, the same measure for “ASH2L_Q9UBL3_581_SCTVSINFGPCFK (UniProt Q9UBL3)”: 0.0671; for “ATP6V1A_P38606_277_YSNSDVIIYVGCGER (UniProt P38606)”: -0.0251.
Regarding “ATPAF2_Q8N5M1_276_TAAGTLFIHLCSESTTVK (UniProt Q8N5M1)”, the “probe-labelled cysteine peptide fold change” value is -0.156.
For the target “ATP2A2_P16615_498_SMSVYCTPNKPSR (UniProt P16615)”, the “probe-labelled cysteine peptide fold change” value is -0.0769.
Same read-out and setting: under “ATM_Q13315_2991_ALYLQQRPEDETELHPTLNADDQECK (UniProt Q13315)” stands 0.0559.
As for “ARSB_P15848_405_IELLHNIDPNFVDSSPCPR (UniProt P15848)”, the “probe-labelled cysteine peptide fold change” value was -0.286.
As for “ATP5PO_P48047_141_GEVPCTVTSASPLEEATLSELK (UniProt P48047)”, the “probe-labelled cysteine peptide fold change” value was 0.163.
For “ATP2A1_O14983_349_SLPSVETLGCTSVICSDK (UniProt O14983)”, the “probe-labelled cysteine peptide fold change” value is 0.0588.
As to “ARPC1B_O15143_346_CSQFCTTGMDGGMSIWDVK (UniProt O15143)”, the “probe-labelled cysteine peptide fold change” value is -0.0666.
“ASCC3_Q8N3C0_742_NCGHIPFFFPTQGHDYVLAEK (UniProt Q8N3C0)”: the “probe-labelled cysteine peptide fold change” value is 0.126.
In the case of “ATP2B4_P23634_632_TVIEPMACDGLR (UniProt P23634)”, the “probe-labelled cysteine peptide fold change” value was -0.1.
“ATP6V1H_Q9UI12_312_QEYALAMIQCK (UniProt Q9UI12)”: the “probe-labelled cysteine peptide fold change” value is -0.0722.
As to “ATP6V1C1_P21283_225_SSNVLSEDQDSYLCNVTLFR (UniProt P21283)”, the “probe-labelled cysteine peptide fold change” value came out at 0.0787.
Take “ATP6V0D1_P61421_335_NIVWIAECIAQR (UniProt P61421)”: the “probe-labelled cysteine peptide fold change” value stood at 0.0847.
Still for that read-out and setting: the same measure for “ATRX_P46100_1531_CPITTK (UniProt P46100)”: -0.0708; for “ASMTL_O95671_333_VDASACGMER (UniProt O95671)”: -0.0125; for “ATP2B4_P23634_537_TECALLGFVTDLK (UniProt P23634)”: -0.034.
Same read-out and setting: the same measure for “ATP6V1C1_P21283_376_IDCNLLEFK (UniProt P21283)”: 0.0431.
Consider “ATIC_P31939_363_KKNGNYCVLQMDQSYKPDENEVR (UniProt P31939)”, for which the “probe-labelled cysteine peptide fold change” value came out at 0.0376.
For the target “ATP5MF_P56134_7_ASVGECPAPVPVK (UniProt P56134)”, the “probe-labelled cysteine peptide fold change” value is -0.012.
As to “ATP6V1G1_O75348_104_QNRDEVLDNLLAFVCDIRPEIHENYR (UniProt O75348)”, the “probe-labelled cysteine peptide fold change” value was -0.129.
For the target “ASNA1_O43681_55_TTCSCSLAVQLSK (UniProt O43681)”, the “probe-labelled cysteine peptide fold change” value was 0.0423.
Consider “ATAD2B_Q9ULI0_53_AASCPAAK (UniProt Q9ULI0)”, for which the “probe-labelled cysteine peptide fold change” value is -0.101.
Still for that read-out and setting: the same measure for “ATP6V1B2_P21281_162_GPVVLAEDFLDIMGQPINPQCR (UniProt P21281)”: -0.264.

Still in this test, the particulars now being: 50 µM; THP-1; incubation time: 4 h.
Turning to “ASCC3_Q8N3C0_1343_AYEALYNFSHFNPVQTQIFHTLYHTDCNVLLGAPTGSGK (UniProt Q8N3C0)”, the “probe-labelled cysteine peptide fold change” value is 0.153.
Regarding “ATF7IP_Q6VMQ6_955_AADSTSQCGK (UniProt Q6VMQ6)”, the “probe-labelled cysteine peptide fold change” value was -0.0506.
With “ATM_Q13315_2753_LTICTYK (UniProt Q13315)”, the “probe-labelled cysteine peptide fold change” value was determined as 0.0732.
Still for that read-out and setting: the same measure for “ARSA_P15289_493_GEDPALQICCHPGCTPR (UniProt P15289)”: 0.309.
Same read-out and setting: under “ARPC2_O15144_120_RNCFASVFEK (UniProt O15144)” stands -0.0758; under “ATP13A1_Q9HD20_969_LSSIQCICHVIK (UniProt Q9HD20)”, 0.0236.
On to “ATP6V1A_P38606_240_VLDALFPCVQGGTTAIPGAFGCGK (UniProt P38606)”, for which the “probe-labelled cysteine peptide fold change” value is -0.00325.
Same read-out and setting: the same measure for “ATP1A1_P05023_518_CSSILLHGK (UniProt P05023)”: -0.0195.
“ATP8B4_Q8TF62_734_NFSNGHVVCEK (UniProt Q8TF62)”: the “probe-labelled cysteine peptide fold change” value was -0.165.
Regarding “ATM_Q13315_2753_KLTICTYK (UniProt Q13315)”, the “probe-labelled cysteine peptide fold change” value is -0.13.
Still for that read-out and setting: the same measure for “ASAP1_Q9ULH1_373_LNLLTCQVKPNAEDK (UniProt Q9ULH1)”: 0.148; for “ATM_Q13315_1495_SFSLCCDLLSQVCQTAVTYCK (UniProt Q13315)”: -0.367.
In the case of “ATP1B3_P54709_191_IDCVSK (UniProt P54709)”, the “probe-labelled cysteine peptide fold change” value is 0.0783.
For “ASPSCR1_Q9BZE9_40_VTPSTVLLQVLEDTCR (UniProt Q9BZE9)”, the “probe-labelled cysteine peptide fold change” value is -0.1.
The same measure, in the same setting: the same measure for “ATP6V1B2_P21281_112_KTSCEFTGDILR (UniProt P21281)”: 0.0145; for “ASH2L_Q9UBL3_581_SCTVSINFGPCFK (UniProt Q9UBL3)”: -0.0169; for “ATP6V1A_P38606_277_YSNSDVIIYVGCGER (UniProt P38606)”: -0.00211.
On the same count and under the same terms, under “ATPAF2_Q8N5M1_276_TAAGTLFIHLCSESTTVK (UniProt Q8N5M1)” stands 0.117; under “ATP2A2_P16615_498_SMSVYCTPNKPSR (UniProt P16615)”, -0.0652; under “ATM_Q13315_2991_ALYLQQRPEDETELHPTLNADDQECK (UniProt Q13315)”, -0.197.
The same measure, in the same setting: under “ARSB_P15848_405_IELLHNIDPNFVDSSPCPR (UniProt P15848)” stands -0.334.
For “ATP5PO_P48047_141_GEVPCTVTSASPLEEATLSELK (UniProt P48047)”, the “probe-labelled cysteine peptide fold change” value was determined as 0.0371.
For “ATP2A1_O14983_349_SLPSVETLGCTSVICSDK (UniProt O14983)”, the “probe-labelled cysteine peptide fold change” value is 0.107.
Turning to “ARPC1B_O15143_346_CSQFCTTGMDGGMSIWDVK (UniProt O15143)”, the “probe-labelled cysteine peptide fold change” value is -0.0491.
With “ASCC3_Q8N3C0_742_NCGHIPFFFPTQGHDYVLAEK (UniProt Q8N3C0)”, the “probe-labelled cysteine peptide fold change” value was determined as 0.283.
Take “ATP2B4_P23634_632_TVIEPMACDGLR (UniProt P23634)”: the “probe-labelled cysteine peptide fold change” value was -0.201.
Consider “ATP6V1H_Q9UI12_312_QEYALAMIQCK (UniProt Q9UI12)”, for which the “probe-labelled cysteine peptide fold change” value is -0.0728.
Regarding “ATP6V1C1_P21283_225_SSNVLSEDQDSYLCNVTLFR (UniProt P21283)”, the “probe-labelled cysteine peptide fold change” value worked out at 0.202.
“ATP6V0D1_P61421_335_NIVWIAECIAQR (UniProt P61421)”: the “probe-labelled cysteine peptide fold change” value is 0.315.
As for “ATRX_P46100_1531_CPITTK (UniProt P46100)”, the “probe-labelled cysteine peptide fold change” value was -0.241.
As to “ASMTL_O95671_333_VDASACGMER (UniProt O95671)”, the “probe-labelled cysteine peptide fold change” value is -0.111.
For the target “ATP2B4_P23634_537_TECALLGFVTDLK (UniProt P23634)”, the “probe-labelled cysteine peptide fold change” value is -0.163.
“ATP6V1C1_P21283_376_IDCNLLEFK (UniProt P21283)”: the “probe-labelled cysteine peptide fold change” value was 0.129.
In the case of “ATIC_P31939_363_KKNGNYCVLQMDQSYKPDENEVR (UniProt P31939)”, the “probe-labelled cysteine peptide fold change” value amounted to 0.0796.
Take “ATP5MF_P56134_7_ASVGECPAPVPVK (UniProt P56134)”: the “probe-labelled cysteine peptide fold change” value is -0.17.
Turning to “ATP6V1G1_O75348_104_QNRDEVLDNLLAFVCDIRPEIHENYR (UniProt O75348)”, the “probe-labelled cysteine peptide fold change” value was -0.166.
“ASNA1_O43681_55_TTCSCSLAVQLSK (UniProt O43681)”: the “probe-labelled cysteine peptide fold change” value was determined as 0.0978.
For “ATAD2B_Q9ULI0_53_AASCPAAK (UniProt Q9ULI0)”, the “probe-labelled cysteine peptide fold change” value was -0.101.
“ATP6V1B2_P21281_162_GPVVLAEDFLDIMGQPINPQCR (UniProt P21281)”: the “probe-labelled cysteine peptide fold change” value was determined as 0.332.
